System: hypogonadism in men
Assay: Study of testosterone cypionate injections every 7 days (with anastrozole) in men, followed by blood work until stabilization
Format: in vivo, human
Description: Patient hemoglobin and total testosterone (TT) levels were used in this Study to determine when a patient becomes “stable” on treatment. The terms “stable”, “stability”, “stabilized” and “stabilization” are defined in this Study as “the point at which a patient's symptoms have resolved, polycythemia has stopped, and TC dosage has remained consistent for at least 3 months.” Polycythemia associated with testosterone replacement therapy (TRT) has commonly been controlled through frequent patient blood donation. […] Several TT “normal” ranges can be found in the literature. For example, the Endocrine Society identifies the normal range for TT levels in males to be 264-916 ng/dL (1,17). However, LabCorp Diagnostics has used the previously accepted “normal” range of 348-1197 ng/dL until 2017 and Quest Diagnostics uses a reference range of 250-1110 ng/dL.
Patients' responses to TC injections administered every 7 days were tracked and the resulting effects of TC dosing on cholesterol, A1c, and PSA levels were documented once stable TT levels were reached.
Subjects: Two cohorts were studied. The two cohorts studied were males that had previously been on TRT and males who had never been on any form of TRT. […]

SMILES: C[C@]12CC[C@H]3[C@@H](CCC4=CC(=O)CC[C@@]43C)[C@@H]1CC[C@@H]2OC(=O)CCC1CCCC1 [TC, testosterone cypionate]
- patients able to reach stabilization of treatment without taking any anastrozole (6 patients of 60): 10%
- patients who needed to take an estrogen blocker (anastrozole) 3 days after their TC dosage (all patients treated in the study): 54 out of 60

— patent US20250073245A1, “COMPOSITION AND METHOD OF TREATING HYPOGONADISM IN MEN” (priority 2023, published 2025)
